# Reference: PubChem BioAssay AID743255 (National Center for Advancing Translational Sciences (NCATS), 2014)
# Chains of the proteins cited; added tags and fusions are not shown. Lines headed by an entry give the natural chain unless they say otherwise; changes in a name come on top.
# UniProt O94782: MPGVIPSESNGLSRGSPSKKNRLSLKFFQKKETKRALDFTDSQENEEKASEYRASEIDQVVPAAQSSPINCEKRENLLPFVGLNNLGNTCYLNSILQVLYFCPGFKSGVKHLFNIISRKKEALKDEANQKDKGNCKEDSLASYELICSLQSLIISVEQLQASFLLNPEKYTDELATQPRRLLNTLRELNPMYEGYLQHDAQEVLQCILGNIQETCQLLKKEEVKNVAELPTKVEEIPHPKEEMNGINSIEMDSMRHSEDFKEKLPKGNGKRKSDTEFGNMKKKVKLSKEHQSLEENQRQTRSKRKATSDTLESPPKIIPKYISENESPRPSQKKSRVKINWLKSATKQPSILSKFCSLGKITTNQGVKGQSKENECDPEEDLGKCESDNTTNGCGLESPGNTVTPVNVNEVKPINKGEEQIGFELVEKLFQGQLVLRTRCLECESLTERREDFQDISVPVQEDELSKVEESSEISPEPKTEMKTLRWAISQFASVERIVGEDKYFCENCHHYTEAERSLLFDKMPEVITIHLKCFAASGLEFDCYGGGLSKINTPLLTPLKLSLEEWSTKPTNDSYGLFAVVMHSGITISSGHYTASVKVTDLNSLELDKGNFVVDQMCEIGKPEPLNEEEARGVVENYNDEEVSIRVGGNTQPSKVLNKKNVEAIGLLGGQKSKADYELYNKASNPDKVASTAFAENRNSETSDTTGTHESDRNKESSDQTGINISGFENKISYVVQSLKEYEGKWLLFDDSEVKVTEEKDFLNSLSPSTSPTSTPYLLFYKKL
# About 910 (0.23%) of roughly 390,000 compounds were called active. Inconclusive means that the source gave no clear call. Such entries were picked first, then a sample of the others. Calls follow the shape of the dose curve; as a rule, active = well fitted inhibition curve with a large enough effect; inconclusive = small, poorly fitted or top-dose-only effect; inactive = no such curve, though single readings can be large or run the other way. Potencies beside an inconclusive call are fits to weak or partial responses and may not hold up.
# Biological target: Ubiquitin carboxyl-terminal hydrolase 1 (Homo sapiens) (UniProt O94782)
# Assay: Inhibitors of USP1/UAF1: Primary Screen; also: nearly all actives have a fitted effect of over 60% in size
# Conditions: recombinant USP1/UAF1, Ub-Rhodamine cleavage fluorescence; series mostly up to 57.1 µM
# In short: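 High-throughput fluorogenic screen: 1nM USP1/UAF1 complex, Ub-Rho substrate 150nM final, 50mM HEPES pH 7.8 with 0.5mM EDTA, 0.1 mg/ml BSA, 1mM TCEP and 0.01% Tween-20.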
# Potency is read from the fitted curve at half-maximal effect.
row,Structure (SMILES),Potency
1,COc1ccc(OC)c2c(C)cc(N3CCCCCC3)nc12,"inconclusive: 39.8 µM [inhibitor, partial curve]"
2,Cc1ccc(O)c(C2=NCCNC(C(F)(F)F)=C2)c1,inactive
3,COC(=O)c1c(-c2cccs2)csc1NC(=O)c1ccc(C)cc1,"inconclusive: 10 µM [inhibitor, partial curve, poor fit]"
4,CCN(CC)C(=O)C1=C(C)N(Cc2ccc(C(C)(C)C)cc2)C(=O)C(CC(=O)NC2CCCC2)C1 (stereo unspecified),"inconclusive: 89.1 µM [inhibitor, partial curve, poor fit]"
5,CC(=O)O[C@H]1CC[C@@]2(C)[C@@H](CC[C@H]3[C@@H]4CC[C@H](C(C)O)[C@@]4(C)CC(=O)[C@@H]32)C1 (stereo partly specified),"inconclusive: 0.224 µM [inhibitor, full curve]"
6,CCCn1c(SCC(=O)c2cc(C)n(C3CC3)c2C)n[nH]c1=O,inactive
7,CCCNC(=O)C1CCN(c2nc3ccc(C)cc3[nH]2)CC1,"inconclusive: 1 µM [inhibitor, full curve, poor fit]"
8,C=C(C)CC1N(c2cccc(OC)c2)C(=O)C2C(C(=O)O)C3C=CC21O3 (stereo unspecified),inactive
9,CCOC(=O)c1ccc(-c2ccc(/C=N/NC(=O)CN(c3ccccc3Cl)S(C)(=O)=O)o2)cc1,"inconclusive: 39.8 µM [inhibitor, partial curve]"
10,Cc1cc(SCC(=O)c2cccs2)nc2c(C)cccc12,"inconclusive: 31.6 µM [inhibitor, partial curve]"
11,COc1cc(/C=C2\N=C(c3ccccc3)NNC2=O)cc(OC)c1OC,"inconclusive: 35.5 µM [inhibitor, partial curve]"
12,CCC(C)(C)NC(=O)Cc1ccc(Cl)cc1,"inconclusive: 0.447 µM [inhibitor, full curve, poor fit]"
13,O=C(CSc1nc(-c2ccc(F)cc2)cc(C(F)(F)F)n1)NCc1cccs1,inactive
14,CC(=O)Nc1nc(CC(=O)c2ccccc2)cs1,"inconclusive: 0.794 µM [inhibitor, full curve, poor fit]"
15,COC(=O)CN1C2(C#N)CCCCC2CC2CCCCC21C#N (stereo unspecified),"inconclusive: 31.6 µM [inhibitor, partial curve]"
16,Cc1ccc(COc2ccsc2-c2n[nH]c(=S)n2C)cc1,inactive
17,COc1ccc(/C=C/C(=O)c2ccncc2)c2ccccc12,"inconclusive: 31.6 µM [inhibitor, partial curve]"
18,Nc1c(C(=O)C2CC2)sc2nc(-c3ccccc3)cc(C(F)(F)F)c12,"inconclusive: 35.5 µM [inhibitor, partial curve, poor fit]"
19,Cc1ccc([C@H]2C(C(=O)O)=CC[C@@H](c3cccc(C)c3)N2S(=O)(=O)c2ccc(C)cc2)cc1,"inconclusive: 50.1 µM [inhibitor, partial curve, poor fit]"
20,CCOC(=O)/C(=N\Nc1ccc(C(C)=O)cc1)c1csc(Nc2ccccc2)n1,"inconclusive: 39.8 µM [inhibitor, partial curve]"
21,O=Cc1c(-c2ccc(Cl)cc2)oc2ccc(O)cc12,inactive

# 2 records drawn at random from the list so far:
row,Structure (SMILES),Potency
10,Cc1cc(SCC(=O)c2cccs2)nc2c(C)cccc12,"inconclusive: 31.6 µM [inhibitor, partial curve]"
4,CCN(CC)C(=O)C1=C(C)N(Cc2ccc(C(C)(C)C)cc2)C(=O)C(CC(=O)NC2CCCC2)C1 (stereo unspecified),"inconclusive: 89.1 µM [inhibitor, partial curve, poor fit]"

# Further results follow:

row,Structure (SMILES),Potency
1,Cc1ccc(C)c(N2CCN(C(=O)CCc3nc(-c4ccccc4)no3)CC2)c1,"inconclusive: 56.2 µM [inhibitor, partial curve, poor fit]"
2,O=C(Nc1ccn(CCCNCCc2ccccn2)c(=O)n1)OCc1ccccc1,"inconclusive: 100 µM [inhibitor, partial curve, poor fit]"
3,Cc1cccc(NC(=O)COC(=O)c2ccc([N+](=O)[O-])o2)c1C,"inconclusive: 28.2 µM [inhibitor, partial curve]"
4,Cc1oc(-c2ccccc2)nc1C(=O)OCC(=O)NCc1ccc(F)cc1,"inconclusive: 44.7 µM [inhibitor, partial curve, poor fit]"
5,COc1ccc(CNC(=O)CN(C(=O)CCC(=O)Nc2ccccn2)c2ccc(C)cc2)cc1,inactive
6,O=C(NN1C(=O)/C(=C/c2ccc(O)c(O)c2)SC1=S)c1ccccc1,"inconclusive: 89.1 µM [inhibitor, partial curve, poor fit]"
7,O=S(=O)(c1cc(Cl)ccc1Cl)N1CCN(c2ccccn2)CC1,"inconclusive: 39.8 µM [inhibitor, partial curve]"
8,CC1=C(C(=O)Nc2ccccc2)C(c2ccc[nH]2)n2ncnc2N1 (stereo unspecified),"inconclusive: 79.4 µM [inhibitor, partial curve, poor fit]"
9,CCOC(=O)c1ccc(NC(=O)Nc2ccc(OC)c(OC)c2)cc1,inactive
10,COc1ccc(-c2nn(-c3ccccc3)cc2C(=O)NC(=S)N2CCOCC2)cc1OC,"inconclusive: 44.7 µM [inhibitor, partial curve]"
11,CC(C)OC(=O)CC(=O)CSc1nc(-c2ccc(F)cc2)cc(-c2ccccc2)c1C#N,inactive
12,OC1(C#Cc2c(-c3ccsc3)oc3ccc(N4CCOCC4)cc23)CCCCC1,"inconclusive: 50.1 µM [inhibitor, partial curve, poor fit]"
13,CCCN1CCc2c(sc3nc(SC)n(-c4ccccc4)c(=O)c23)C1,inactive
14,Cc1ccccc1OCC(=O)Nc1ccc2nc(SCC(N)=O)sc2c1,"inconclusive: 6.31 µM [inhibitor, partial curve]"
15,Cc1ccc(NC(=O)CS(=O)CC(=O)N(CC(=O)NC2CCCC2)c2ccc3c(c2)OCCO3)cc1 (stereo unspecified),"inconclusive: 31.6 µM [inhibitor, partial curve]"
16,COCc1c(C(=O)N2CCN(CCOc3ccccc3)CC2)oc2ccccc12,inactive
17,COc1ccc(C(=O)Nc2ccc(F)cc2F)cc1,"inconclusive: 7.08 µM [inhibitor, single point]"
18,Cc1ccc(S(=O)(=O)c2c(C)cc(C)nc2Oc2cccc(C(F)(F)F)c2)cc1,"inconclusive: 12.6 µM [inhibitor, partial curve]"
19,Cc1cc(S(=O)(=O)N2CCOCC2)ccc1NC(=O)c1ccc(F)cc1,"inconclusive: 31.6 µM [inhibitor, partial curve]"
20,Cc1ccn2c(NC3CCCC3)c(-c3cccs3)nc2c1,"inconclusive: 7.08 µM [inhibitor, single point]"
